The target of the data set is TATA binding protein (TBP), endogenous in HeLa nuclear extract (Homo sapiens) (UniProt P20226). As to the kind of experiment: binding assay. The conditions noted are these: square wave voltammetry; endogenous TBP quantified at 4±2 nM; protein in an extract; protein details: HeLa nuclear extract, Santa Cruz Biotechnologies; folded or branched DNA.

Chains of the proteins cited; added tags and fusions are not shown.
UniProt P20226, whole entry: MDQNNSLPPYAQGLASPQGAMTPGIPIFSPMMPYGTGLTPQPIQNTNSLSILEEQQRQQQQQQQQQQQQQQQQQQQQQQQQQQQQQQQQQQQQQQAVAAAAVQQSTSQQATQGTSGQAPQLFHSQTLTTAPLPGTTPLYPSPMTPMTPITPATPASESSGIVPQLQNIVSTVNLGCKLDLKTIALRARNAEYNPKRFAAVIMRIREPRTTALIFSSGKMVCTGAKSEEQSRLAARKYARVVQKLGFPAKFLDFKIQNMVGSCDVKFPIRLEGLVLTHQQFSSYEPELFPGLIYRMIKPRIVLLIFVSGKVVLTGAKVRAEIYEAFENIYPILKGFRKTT

Results from cells or extracts need not show a direct contact.

The results in this text go back to patent publication US20130288923, “Nucleotide-Based Probes and Methods for the Detection and Quantification of Macromolecules and Other Analytes” (THE REGENTS OF THE UNIVERSITY OF CALIFORNIA, published 2013).

On to “GAATAGGTTCCTATAAAAGGTTGGTTTTATAAACCTATCCTATTC [TBP electrochemical probe]”, for which the binding result is reported as “binds”.
